Results taken from publication PMC4513857, “PRC2 regulates RNA polymerase III transcribed non-translated RNA gene transcription through EZH2 and SUZ12 interaction with TFIIIC complex” (Nucleic Acids Research, 2015).
No constants are given. Whether binding was seen depends on the method and setting. Binding seen in cells or lysates may run through a third protein. Some results given as binding are weak or reduced against the parent protein; the word gives no strength.

Amino acid sequences for entries named in this document (tags omitted). A change or cut given only in a name is not applied to a line headed by its entry. Residues count along the entry.
UniProt Q15910: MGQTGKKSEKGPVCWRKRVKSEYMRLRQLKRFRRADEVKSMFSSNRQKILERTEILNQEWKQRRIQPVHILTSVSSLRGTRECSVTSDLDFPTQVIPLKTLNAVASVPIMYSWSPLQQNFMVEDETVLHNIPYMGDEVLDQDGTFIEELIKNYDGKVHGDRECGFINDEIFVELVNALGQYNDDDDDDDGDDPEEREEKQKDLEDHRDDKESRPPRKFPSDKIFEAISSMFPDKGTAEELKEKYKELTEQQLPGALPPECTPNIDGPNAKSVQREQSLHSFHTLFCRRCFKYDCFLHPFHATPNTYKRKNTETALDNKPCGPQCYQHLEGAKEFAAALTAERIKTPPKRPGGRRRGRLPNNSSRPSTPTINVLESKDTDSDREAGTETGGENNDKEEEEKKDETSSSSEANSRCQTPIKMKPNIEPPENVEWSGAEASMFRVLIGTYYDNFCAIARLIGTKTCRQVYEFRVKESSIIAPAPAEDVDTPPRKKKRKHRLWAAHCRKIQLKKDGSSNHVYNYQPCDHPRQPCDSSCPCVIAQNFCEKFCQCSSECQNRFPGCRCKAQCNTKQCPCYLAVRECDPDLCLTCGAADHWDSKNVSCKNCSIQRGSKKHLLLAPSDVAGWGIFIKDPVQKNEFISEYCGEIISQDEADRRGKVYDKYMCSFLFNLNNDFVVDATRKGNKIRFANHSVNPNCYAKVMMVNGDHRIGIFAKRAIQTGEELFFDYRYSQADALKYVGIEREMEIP
GST-EZH2 fragment A, N-terminal region (Domain I + Domain II), aa 1-522: residues 1-522 of Q15910
UniProt Q15022: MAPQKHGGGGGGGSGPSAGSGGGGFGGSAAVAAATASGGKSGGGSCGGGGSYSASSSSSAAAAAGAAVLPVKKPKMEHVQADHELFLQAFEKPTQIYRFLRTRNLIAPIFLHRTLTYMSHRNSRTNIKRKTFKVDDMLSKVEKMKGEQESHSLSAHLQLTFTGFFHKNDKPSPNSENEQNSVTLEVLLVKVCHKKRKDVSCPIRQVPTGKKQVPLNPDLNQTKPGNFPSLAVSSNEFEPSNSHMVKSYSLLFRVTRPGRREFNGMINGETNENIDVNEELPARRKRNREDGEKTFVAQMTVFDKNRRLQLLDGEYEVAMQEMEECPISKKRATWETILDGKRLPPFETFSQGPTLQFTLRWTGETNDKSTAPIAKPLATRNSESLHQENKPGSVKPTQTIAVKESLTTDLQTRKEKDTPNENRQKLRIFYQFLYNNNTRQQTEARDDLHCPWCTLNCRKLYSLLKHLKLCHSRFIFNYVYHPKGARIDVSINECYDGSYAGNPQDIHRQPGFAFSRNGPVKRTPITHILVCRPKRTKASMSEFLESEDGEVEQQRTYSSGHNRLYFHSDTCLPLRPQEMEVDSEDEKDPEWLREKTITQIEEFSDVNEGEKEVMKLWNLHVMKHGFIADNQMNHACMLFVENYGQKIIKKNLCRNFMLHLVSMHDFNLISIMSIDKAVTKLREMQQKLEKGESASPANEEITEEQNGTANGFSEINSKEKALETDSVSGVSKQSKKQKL

Legend:
[1] = molecular target: T1, TFIIIC102, endogenous (human (endogenous in MCF7, SUM159, HeLa)) (UniProt Q9Y5Q9); assay: co-IP; endogenous proteins; MCF7 and SUM159 lysates in NP-40 buffer (50 mM Tris-HCl pH 7.4, 150 mM NaCl, 1% NP-40, 1 mM EDTA), antibody overnight at 4°C, protein A/G-Sepharose, western blot; normal rabbit or mouse IgG as negative controls; EZH2-TFIIIC102 also with DNase
T1 sequence: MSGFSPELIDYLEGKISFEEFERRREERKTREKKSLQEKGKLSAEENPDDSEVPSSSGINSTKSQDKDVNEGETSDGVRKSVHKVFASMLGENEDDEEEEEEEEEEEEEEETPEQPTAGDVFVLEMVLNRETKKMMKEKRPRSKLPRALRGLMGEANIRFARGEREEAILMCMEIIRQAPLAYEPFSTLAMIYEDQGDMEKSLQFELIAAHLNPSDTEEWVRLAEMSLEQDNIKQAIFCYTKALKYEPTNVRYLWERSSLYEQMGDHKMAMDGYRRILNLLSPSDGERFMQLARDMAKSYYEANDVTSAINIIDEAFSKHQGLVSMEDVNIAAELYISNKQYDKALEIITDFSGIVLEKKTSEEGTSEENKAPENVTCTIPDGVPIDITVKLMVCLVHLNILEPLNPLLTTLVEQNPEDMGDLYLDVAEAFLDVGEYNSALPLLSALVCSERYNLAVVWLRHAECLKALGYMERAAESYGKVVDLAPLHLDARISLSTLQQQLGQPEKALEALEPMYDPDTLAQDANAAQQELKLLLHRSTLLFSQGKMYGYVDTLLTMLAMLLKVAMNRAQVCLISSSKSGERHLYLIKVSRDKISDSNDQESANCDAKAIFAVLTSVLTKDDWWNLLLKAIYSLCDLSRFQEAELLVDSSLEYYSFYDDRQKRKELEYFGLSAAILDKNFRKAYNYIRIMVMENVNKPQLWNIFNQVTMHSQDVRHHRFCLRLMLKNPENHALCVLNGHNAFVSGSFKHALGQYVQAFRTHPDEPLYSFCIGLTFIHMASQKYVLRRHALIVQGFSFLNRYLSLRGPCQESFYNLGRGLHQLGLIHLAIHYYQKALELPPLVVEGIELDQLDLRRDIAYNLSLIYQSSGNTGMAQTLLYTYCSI

[2] = molecular target: T2, TFIIIC110, endogenous (human (endogenous in MCF7, SUM159, HeLa)) (UniProt Q8WUA4); assay: as above
T2 sequence: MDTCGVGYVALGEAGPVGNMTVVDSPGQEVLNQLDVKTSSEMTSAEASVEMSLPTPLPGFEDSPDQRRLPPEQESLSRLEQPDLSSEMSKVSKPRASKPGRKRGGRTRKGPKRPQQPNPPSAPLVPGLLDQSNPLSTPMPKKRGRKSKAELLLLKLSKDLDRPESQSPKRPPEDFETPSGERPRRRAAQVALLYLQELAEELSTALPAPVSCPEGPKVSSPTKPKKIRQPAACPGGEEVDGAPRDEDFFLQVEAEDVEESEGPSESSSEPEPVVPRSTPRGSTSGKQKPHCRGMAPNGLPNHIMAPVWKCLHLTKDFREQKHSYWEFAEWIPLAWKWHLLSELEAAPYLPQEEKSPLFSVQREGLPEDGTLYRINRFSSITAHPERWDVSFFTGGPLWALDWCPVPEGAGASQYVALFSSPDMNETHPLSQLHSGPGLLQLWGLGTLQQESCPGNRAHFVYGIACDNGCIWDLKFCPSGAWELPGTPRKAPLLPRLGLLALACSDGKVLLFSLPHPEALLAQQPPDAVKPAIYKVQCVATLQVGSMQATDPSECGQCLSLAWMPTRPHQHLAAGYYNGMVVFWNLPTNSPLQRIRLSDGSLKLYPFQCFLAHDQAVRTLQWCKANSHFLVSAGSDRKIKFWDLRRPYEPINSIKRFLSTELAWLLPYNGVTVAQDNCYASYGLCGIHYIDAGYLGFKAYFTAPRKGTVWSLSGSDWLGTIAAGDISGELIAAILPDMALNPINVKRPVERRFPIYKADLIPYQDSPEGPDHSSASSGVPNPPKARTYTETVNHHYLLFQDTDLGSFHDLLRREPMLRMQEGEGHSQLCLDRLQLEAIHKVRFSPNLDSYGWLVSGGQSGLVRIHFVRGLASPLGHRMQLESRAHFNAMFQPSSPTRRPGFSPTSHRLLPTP

[3] = molecular target: EZH2 (Enhancer of Zeste Homolog 2), endogenous (human (endogenous in MCF7, SUM159)) (UniProt Q15910); assay: as above
[4] = molecular target: SUZ12, endogenous (human (endogenous in MCF7, SUM159)) (UniProt Q15022); assay: as above
[5] = molecular target: GST-EZH2 fragment A, N-terminal region (Domain I + Domain II), aa 1-522 (UniProt Q15910); assay: pull-down; purified GST fusion proteins on Glutathione Sepharose 4B beads mixed with HeLa cell lysates (cells transfected with Flag-TFIIIC102 or Flag-EZH2), 4°C overnight, washed 4x with NP-40 buffer, western blot; only the target purified
GST-SUZ12 = GST-SUZ12 (UniProt Q15022); assay: as above

Measured: binding

SUZ12, endogenous (from UniProt Q15022 1-739)
binds: [1] | [2]

B1: TFIIIC63, endogenous (protein, UniProt Q9Y5Q8 1-519)
chain: MAAEAADLGLGAAVPVELRRERRMVCVEYPGVVRDVAKMLPTLGGEEGVSRIYADPTKRLELYFRPKDPYCHPVCANRFSTSSLLLRIRKRTRRQKGVLGTEAHSEVTFDMEILGIISTIYKFQGMSDFQYLAVHTEAGGKHTSMYDKVLMLRPEKEAFFHQELPLYIPPPIFSRLDAPVDYFYRPETQHREGYNNPPISGENLIGLSRARRPHNAIFVNFEDEEVPKQPLEAAAQTWRRVCTNPVDRKVEEELRKLFDIRPIWSRNAVKANISVHPDKLKVLLPFIAYYMITGPWRSLWIRFGYDPRKNPDAKIYQVLDFRIRCGMKHGYAPSDLPVKAKRSTYNYSLPITVKKTSSQLVTMHDLKQGLGPSGTSGARKPASSKYKLKDSVYIFREGALPPYRQMFYQLCDLNVEELQKIIHRNDGAENSCTERDGWCLPKTSDELRDTMSLMIRQTIRSKRPALFSSSAKADGGKEQLTYESGEDEEDEEEEEEEEEDFKPSDGSENEMETEILDYV
binds: [3] | [4] | [5] | GST-SUZ12
